From patent US20240083846A1 (COUNCIL OF SCIENTIFIC & INDUSTRIAL RESEARCH, priority 2020, published 2024) come the findings set out here.

This series in a line: general procedure: solution-phase peptide synthesis; HBTU/DIPEA; EDC.HCl/HOBt/DIPEA. The note with it: for final HPLC purity: 220 nm.
The mark [1] stands for this setting: late stage modification step, from Boc-protected tetrapeptide.

On to “(2S,3S)-benzyl 2-((2S,5R)-1-((S)-2-((S)-2-(tert-butoxycarbonyl(methyl)amino)propanamido)-3-methylbutanoyl)-5-(5-methylfuran-2-yl)pyrrolidine-2-carboxamido)-3-methylpentanoate”, for which the step yield (coupling step) is 80% yield.

In the case of “(2S,3S)-benzyl 2-((2S,5R)-1-((S)-2-cyclohexyl-2((S)-2-(methylamino)propanamido)acetyl)-5-(5-methylfuran-2-yl)pyrrolidine-2-carboxamido)-3-methylpentanoate”, the “final HPLC purity” value (late stage modification step) is given as 98%. This substance also came in with a step yield under setting [1] of 62% yield.

On to “(2S,3S)-benzyl 3-methyl-2((2S,5R)-1-((S)-3-methyl-2-((S)-2-(methylamino)propanamido)butanoyl)-5-(5-methylfuran-2-yl)pyrrolidine-2-carboxamido)pentanoate”, for which the “final HPLC purity” value (late stage modification step) is 99%. Besides, the step yield under setting [1] stood at 62%.

Regarding “(2S,5R)-N-((2S,3S)-1-(benzhydrylamino)-3-methyl-1-oxopentan-2-yl)-1-((S)-3-methyl-2-((S)-2-(methylamino)propanamido)butanoyl)-5-(5-methylfuran-2-yl)pyrrolidine-2-carboxamide”, the “final HPLC purity” value (late stage modification step) was determined as 99%. Where the note is “late stage modification step, from Boc-protected peptide”, this substance showed a step yield of 56% yield.

On to “(2S,5R)-N-((2S,3S)-1-(benzhydrylamino)-3-methyl-l-oxopentan-2-yl)-1-((S)-3-methyl-2-((S)-2-(methylamino)propanamido)butanoyl)-5-phenylpyrrolidine-2-carboxamide”, for which the step yield entry (late stage modification step, from compound XIII) is recorded as “yield 87%”.

As to Boc-Ala-Val-Fro-Ile-OBn, the step yield (coupling step) was determined as 86% yield.

As to Boc-N(Me)-Ala-Chg-Fro-Ile-OBn, under “coupling step”, the step yield came out at 80% yield.

“tert-butyl (S)-1-((S)-1-((2S,5R)-2-((2S ,3S)-1-(benzhydrylamino)-3 -methyl-l-oxopentan-2-ylcarbamo y1)-5-(5-methylfuran-2-yl)pyrrolidin-1-yl)-3-methyl-1-oxobutan-2-ylamino)-1-oxopropan-2-yl(methyl)carbamate” came in with a step yield (coupling step) of 83% yield.

As to “tert-butyl (S)-1-((S)-1-((2S,5R)-2-((2S ,3S)-1-(benzhydrylamino)-3-methyl-1-oxopentan-2-ylcarbamoyl)-5-phenylpyrrolidin-1-yl)-3-methyl-l-oxobutan-2-ylamino)-1-oxopropan-2-yl(methyl)carbamate”, the step yield result (coupling step) was “yield 84%”.

On to “tert-butyl (S)-1-((S)-2-((2S,5R)-2-((2S,3S)-1-(benzhydrylamino)-3 -methyl-1-oxopentan-2-ylcarbamoyl)-5-(5 -methylfuran-2-yl)pyrrolidin-1-yl)-1-cyclohexyl-2-oxoethylamino)-1-oxopropan-2-yl(methyl)carb amate”, for which, for the setting “coupling step”, the step yield is listed as 85% yield.
